{
  "source": "the supplement of paper PMC8728848",
  "assay_in_all_cases": "glycan array binding signal (z-score within array); higher = stronger binding",
  "conditions_in_all_cases": "glycan notation: IUPAC condensed, linker removed",
  "key": {"Neu5Ac(a2-8)Neu5Ac": {"molecular_target": "Neu5Ac(a2-8)Neu5Ac", "summary_of_the_method": "(§1)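 Negative Z-scores can be read as non-binding. The Z-score is calculated within each array and then averaged across arrays of one protein sequence at different concentrations or buffers and across linkers. Arrays, 3228 in all, were curated from the Consortium for Functional Glycomics database and kept only where the protein sequence was available.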"}, "[1]": {"molecular_target": "Neu5Ac(a2-8)Neu5Ac(a2-3)Gal(b1-3)GalNAc(b1-4)[Neu5Ac(a2-3)]Gal(b1-4)Glc", "summary_of_the_method": "as §1"}, "[2]": {"molecular_target": "Neu5Ac(a2-8)Neu5Ac(a2-3)Gal(b1-3)GalNAc(b1-4)[Neu5Ac(a2-8)Neu5Ac(a2-3)]Gal(b1-4)Glc", "summary_of_the_method": "as §1"}, "[3]": {"molecular_target": "Neu5Ac(a2-8)Neu5Ac(a2-3)Gal(b1-4)Glc", "summary_of_the_method": "as §1"}, "[4]": {"molecular_target": "Neu5Ac(a2-8)Neu5Ac(a2-3)Gal(b1-4)GlcNAc", "summary_of_the_method": "as §1"}, "[5]": {"molecular_target": "Neu5Ac(a2-8)Neu5Ac(a2-3)[Gal(b1-3)GalNAc(b1-4)]Gal(b1-4)Glc", "summary_of_the_method": "as §1"}, "[6]": {"molecular_target": "Neu5Ac(a2-8)Neu5Ac(a2-3)[GalNAc(b1-4)]Gal(b1-4)Glc", "summary_of_the_method": "as §1"}, "[7]": {"molecular_target": "Neu5Ac(a2-8)Neu5Ac(a2-8)Neu5Ac", "summary_of_the_method": "as §1"}, "[8]": {"molecular_target": "Neu5Ac(a2-8)Neu5Ac(a2-8)Neu5Ac(a2-3)Gal(b1-4)Glc", "summary_of_the_method": "as §1"}, "[9]": {"molecular_target": "Neu5Ac(a2-8)Neu5Ac(a2-8)Neu5Ac(a2-3)[Gal(b1-3)GalNAc(b1-4)]Gal(b1-4)Glc", "summary_of_the_method": "as §1"}, "[10]": {"molecular_target": "Neu5Ac(a2-8)Neu5Ac(a2-8)Neu5Ac(a2-3)[GalNAc(b1-4)]Gal(b1-4)Glc", "summary_of_the_method": "as §1"}, "[11]": {"molecular_target": "Neu5Ac(a2-8)Neu5Ac(a2-8)Neu5Ac(a2-8)Neu5Ac(a2-3)[GalNAc(b1-4)]Gal(b1-4)Glc", "summary_of_the_method": "as §1"}, "[12]": {"molecular_target": "Neu5Ac(a2-8)Neu5Gc(a2-3)Gal(b1-4)GlcNAc", "summary_of_the_method": "as §1"}, "[13]": {"molecular_target": "Neu5Ac(b2-6)Gal(b1-4)GlcNAc", "summary_of_the_method": "as §1"}, "Neu5Ac(b2-6)GalNAc": {"molecular_target": "Neu5Ac(b2-6)GalNAc", "summary_of_the_method": "as §1"}, "[14]": {"molecular_target": "Neu5Ac9Ac(a2-3)Gal(b1-3)GlcNAc", "summary_of_the_method": "as §1"}, "[15]": {"molecular_target": "Neu5Ac9Ac(a2-3)Gal(b1-4)GlcNAc", "summary_of_the_method": "as §1"}, "[16]": {"molecular_target": "Neu5Ac9Ac(a2-6)Gal(b1-4)GlcNAc", "summary_of_the_method": "as §1"}, "[17]": {"molecular_target": "Neu5Gc(a2-3)Gal(b1-3)GlcNAc", "summary_of_the_method": "as §1"}, "[18]": {"molecular_target": "Neu5Gc(a2-3)Gal(b1-3)[Fuc(a1-4)]GlcNAc", "summary_of_the_method": "as §1"}, "Neu5Gc(a2-3)Gal(b1-4)Glc": {"molecular_target": "Neu5Gc(a2-3)Gal(b1-4)Glc", "summary_of_the_method": "as §1"}, "[19]": {"molecular_target": "Neu5Gc(a2-3)Gal(b1-4)GlcNAc", "summary_of_the_method": "as §1"}, "[20]": {"molecular_target": "Neu5Gc(a2-3)Gal(b1-4)GlcNAc(b1-3)Gal(b1-4)GlcNAc(b1-2)Man(a1-3)[Neu5Gc(a2-3)Gal(b1-4)GlcNAc(b1-3)Gal(b1-4)GlcNAc(b1-2)Man(a1-6)]Man(b1-4)GlcNAc(b1-4)GlcNAc", "summary_of_the_method": "as §1"}, "[21]": {"molecular_target": "Neu5Gc(a2-3)Gal(b1-4)[Fuc(a1-3)]GlcNAc", "summary_of_the_method": "as §1"}, "[22]": {"molecular_target": "Neu5Gc(a2-6)Gal(b1-4)GlcNAc", "summary_of_the_method": "as §1"}, "Neu5Gc(a2-6)GalNAc": {"molecular_target": "Neu5Gc(a2-6)GalNAc", "summary_of_the_method": "as §1"}, "[23]": {"molecular_target": "Neu5Gc(a2-8)Neu5Ac(a2-3)Gal(b1-4)GlcNAc", "summary_of_the_method": "as §1"}, "[24]": {"molecular_target": "Neu5Gc(a2-8)Neu5Gc(a2-3)Gal(b1-4)GlcNAc", "summary_of_the_method": "as §1"}, "[25]": {"molecular_target": "Neu5Gc(a2-8)Neu5Gc(a2-3)Gal(b1-4)GlcNAc(b1-3)Gal(b1-4)GlcNAc", "summary_of_the_method": "as §1"}, "[26]": {"molecular_target": "Neu5Gc(a2-8)Neu5Gc(a2-6)Gal(b1-4)GlcNAc", "summary_of_the_method": "as §1"}, "[27]": {"molecular_target": "Neu5Gc(b2-6)Gal(b1-4)GlcNAc", "summary_of_the_method": "as §1"}},
  "note": "This is one part of the list.",
  "data": [
    {"binder": "SJCP1084 (Schistosoma japonicum) (protein) MRIINLVIISTALLLINLLQTKSQANGEDTKNGTPDDPGLTKSTELKVEVQALLKDKKTNMRVKWNENLLDNTKPEYHNLRDEACELLLQIVRSVVPLSQDDGECKDVTFTKYVVGTKDGAVNVKLTITFKDSVAINQKPMDLKLKLENDFKNLQSESTLKATKPTFTVKVEKRLIPISKPQTTPPTTAKNDASKENVGDIGGEDSTVPTAAPATAASANEEKDEGDKDNKDSQHPNVLTSNVNDRNLIIALVALMILAIGVALTAAVKQR", "values": [
      {"measurement": "glycan array binding signal (z-score)", "setting": "Neu5Ac(a2-8)Neu5Ac", "result": -0.077},
      {"measurement": "glycan array binding signal (z-score)", "setting": "[1]", "result": 1.24},
      {"measurement": "glycan array binding signal (z-score)", "setting": "[2]", "result": -0.517},
      {"measurement": "glycan array binding signal (z-score)", "setting": "[3]", "result": 1.25},
      {"measurement": "glycan array binding signal (z-score)", "setting": "[4]", "result": -1.65},
      {"measurement": "glycan array binding signal (z-score)", "setting": "[5]", "result": -0.075},
      {"measurement": "glycan array binding signal (z-score)", "setting": "[6]", "result": 0.433},
      {"measurement": "glycan array binding signal (z-score)", "setting": "[7]", "result": 0.443},
      {"measurement": "glycan array binding signal (z-score)", "setting": "[8]", "result": 0.152},
      {"measurement": "glycan array binding signal (z-score)", "setting": "[9]", "result": -0.802},
      {"measurement": "glycan array binding signal (z-score)", "setting": "[10]", "result": -0.842},
      {"measurement": "glycan array binding signal (z-score)", "setting": "[11]", "result": -0.607},
      {"measurement": "glycan array binding signal (z-score)", "setting": "[12]", "result": -0.605},
      {"measurement": "glycan array binding signal (z-score)", "setting": "[13]", "result": -0.022},
      {"measurement": "glycan array binding signal (z-score)", "setting": "Neu5Ac(b2-6)GalNAc", "result": -0.824},
      {"measurement": "glycan array binding signal (z-score)", "setting": "[14]", "result": 1.34},
      {"measurement": "glycan array binding signal (z-score)", "setting": "[15]", "result": -1.05},
      {"measurement": "glycan array binding signal (z-score)", "setting": "[16]", "result": 0.524},
      {"measurement": "glycan array binding signal (z-score)", "setting": "[17]", "result": -0.767},
      {"measurement": "glycan array binding signal (z-score)", "setting": "[18]", "result": 2.57},
      {"measurement": "glycan array binding signal (z-score)", "setting": "Neu5Gc(a2-3)Gal(b1-4)Glc", "result": -0.244},
      {"measurement": "glycan array binding signal (z-score)", "setting": "[19]", "result": -0.592},
      {"measurement": "glycan array binding signal (z-score)", "setting": "[20]", "result": -0.922},
      {"measurement": "glycan array binding signal (z-score)", "setting": "[21]", "result": 0.638},
      {"measurement": "glycan array binding signal (z-score)", "setting": "[22]", "result": -0.032},
      {"measurement": "glycan array binding signal (z-score)", "setting": "Neu5Gc(a2-6)GalNAc", "result": 1.07},
      {"measurement": "glycan array binding signal (z-score)", "setting": "[23]", "result": -0.618},
      {"measurement": "glycan array binding signal (z-score)", "setting": "[24]", "result": -1.21},
      {"measurement": "glycan array binding signal (z-score)", "setting": "[25]", "result": -1.55},
      {"measurement": "glycan array binding signal (z-score)", "setting": "[26]", "result": -0.143},
      {"measurement": "glycan array binding signal (z-score)", "setting": "[27]", "result": -0.08}
    ]}
  ]
}
